Laboratory results: PubChem BioAssay AID1508597 (Cure First, 2020)
Aim: 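Genes whose silencing sensitises or protects ovarian cancer cells against rucaparib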 (primary screen). Cell system: human ovarian carcinoma lines grown from tumours: OCI-P5x (papillary serous) and OCI-C5x (clear cell). Reagent: siRNA pool against human genes, 1.25 pmol siRNA per well. Time to read-out: 72 h or 96 h, depending on the cell culture. Challenge: rucaparib 20 µM (about IC30) or vehicle, present until read-out. Rucaparib or vehicle: Vehicle. Cell line: OCI-C5x (clear cell). Measured: 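Luminescent ATP-based viability assay read 72 or 96 h after transfection, depending on culture, given as normalised percent viability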. Direction: viability, normalised: higher = more viable cells remaining. Rule for the call: 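Active when normalised viability falls below 80 percent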. Calls: active = viability under 80%; inactive = viability 80% or more.
Shown is a random part of the about 2,100 reagents, under one of the conditions tested. 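Calls flag viability under 80% in either arm, not effects specific to rucaparib; the reference for percent is not stated.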 Unmarked entries are inactive. Not stated in the record: the 100% reference.

PARP15, technical replicate 1 → viability, normalised (%) = 18.6 (active)
PARP15, technical replicate 2 → viability, normalised (%) = 17.5 (active)
PARP15, technical replicate 3 → viability, normalised (%) = 20.9 (active)
PMS1, technical replicate 1 → viability, normalised (%) = 63.8 (active)
PMS1, technical replicate 2 → viability, normalised (%) = 50.9 (active)
PMS1, technical replicate 3 → viability, normalised (%) = 54 (active)
HIRA, technical replicate 1 → viability, normalised (%) = 61.8 (active)
HIRA, technical replicate 2 → viability, normalised (%) = 81.9
HIRA, technical replicate 3 → viability, normalised (%) = 89.4
PDE5A, technical replicate 1 → viability, normalised (%) = 47 (active)
PDE5A, technical replicate 2 → viability, normalised (%) = 48.4 (active)
PDE5A, technical replicate 3 → viability, normalised (%) = 46.1 (active)
TSPYL5, technical replicate 1 → viability, normalised (%) = 85.2
TSPYL5, technical replicate 2 → viability, normalised (%) = 61.8 (active)
TSPYL5, technical replicate 3 → viability, normalised (%) = 74.5 (active)
PNKP, technical replicate 1 → viability, normalised (%) = 53.2 (active)
PNKP, technical replicate 2 → viability, normalised (%) = 45.1 (active)
PNKP, technical replicate 3 → viability, normalised (%) = 47.6 (active)

The list goes on (2 carried over from the part before).
PNKP, technical replicate 2 → viability, normalised (%) = 45.1 (active)
PNKP, technical replicate 3 → viability, normalised (%) = 47.6 (active)
SMG1, technical replicate 1 → viability, normalised (%) = 52.8 (active)
SMG1, technical replicate 2 → viability, normalised (%) = 51.9 (active)
SMG1, technical replicate 3 → viability, normalised (%) = 50.9 (active)
PARP12, technical replicate 1 → viability, normalised (%) = 33.9 (active)
PARP12, technical replicate 2 → viability, normalised (%) = 29 (active)
PARP12, technical replicate 3 → viability, normalised (%) = 31.7 (active)
CAMK2B, technical replicate 1 → viability, normalised (%) = 45.8 (active)
CAMK2B, technical replicate 2 → viability, normalised (%) = 38.1 (active)
CAMK2B, technical replicate 3 → viability, normalised (%) = 44.5 (active)
SLC6A3, technical replicate 1 → viability, normalised (%) = 31 (active)
SLC6A3, technical replicate 2 → viability, normalised (%) = 39.8 (active)
SLC6A3, technical replicate 3 → viability, normalised (%) = 38.8 (active)
ARID5B, technical replicate 1 → viability, normalised (%) = 26 (active)
ARID5B, technical replicate 2 → viability, normalised (%) = 26.6 (active)
ARID5B, technical replicate 3 → viability, normalised (%) = 20.2 (active)
